Measurements reported in paper doi:10.1101/525527.
These are yes or no findings as the source states them, for the method shown. Binding seen in cells or lysates may run through a third protein. Some results given as binding are weak or reduced against the parent protein; the word gives no strength.

Chains of the proteins cited; added tags and fusions are not shown.
UniProt Q9UKV8: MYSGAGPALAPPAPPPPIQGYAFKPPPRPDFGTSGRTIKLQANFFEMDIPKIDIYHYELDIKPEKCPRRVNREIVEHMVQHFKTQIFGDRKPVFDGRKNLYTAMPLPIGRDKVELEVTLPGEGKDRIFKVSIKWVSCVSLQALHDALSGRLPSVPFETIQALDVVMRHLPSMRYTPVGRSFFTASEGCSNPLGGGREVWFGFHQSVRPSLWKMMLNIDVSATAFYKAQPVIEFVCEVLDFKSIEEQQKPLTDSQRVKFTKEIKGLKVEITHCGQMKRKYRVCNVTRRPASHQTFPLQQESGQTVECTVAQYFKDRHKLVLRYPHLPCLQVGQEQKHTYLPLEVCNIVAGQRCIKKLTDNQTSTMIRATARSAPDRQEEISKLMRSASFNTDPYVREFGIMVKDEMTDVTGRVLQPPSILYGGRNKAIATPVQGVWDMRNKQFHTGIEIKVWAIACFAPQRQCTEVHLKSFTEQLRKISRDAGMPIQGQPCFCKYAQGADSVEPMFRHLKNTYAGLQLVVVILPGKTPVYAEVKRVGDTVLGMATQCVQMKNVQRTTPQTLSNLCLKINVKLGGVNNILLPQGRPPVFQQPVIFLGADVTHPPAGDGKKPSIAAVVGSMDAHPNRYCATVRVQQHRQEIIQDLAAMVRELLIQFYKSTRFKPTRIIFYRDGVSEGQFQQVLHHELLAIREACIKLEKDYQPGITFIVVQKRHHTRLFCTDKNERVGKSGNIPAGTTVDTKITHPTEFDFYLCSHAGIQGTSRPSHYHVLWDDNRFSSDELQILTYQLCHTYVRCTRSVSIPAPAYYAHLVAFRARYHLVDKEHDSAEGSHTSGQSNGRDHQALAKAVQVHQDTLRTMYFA

Key:
[1] = target: AGO2 fused with C-terminal Flag- and HA-epitope tags (e-AGO2) (UniProt Q9UKV8); test: co-IP
[2] = target: AGO1 fused with C-terminal Flag- and HA-epitope tags (e-AGO1) (human) (UniProt Q9UL18); test: co-IP

- binding [1]: no binding
- binding [2]: binds
B1: NONO (protein, UniProt Q15233 1-471)
chain: MQSNKTFNLEKQNHTPRKHHQHHHQQQHHQQQQQQPPPPPIPANGQQASSQNEGLTIDLKNFRKPGEKTFTQRSRLFVGNLPPDITEEEMRKLFEKYGKAGEVFIHKDKGFGFIRLETRTLAEIAKVELDNMPLRGKQLRVRFACHSASLTVRNLPQYVSNELLEEAFSVFGQVERAVVIVDDRGRPSGKGIVEFSGKPAARKALDRCSEGSFLLTTFPRPVTVEPMDQLDDEEGLPEKLVIKNQQFHKEREQPPRFAQPGSFEYEYAMRWKALIEMEKQQQDQVDRNIKEAREKLEMEMEAARHEHQVMLMRQDLMRRQEELRRMEELHNQEVQKRKQLELRQEEERRRREEEMRRQQEEMMRRQQEGFKGTFPDAREQEIRMGQMAMGGAMGINNRGAMPPAPVPAGTPAPPGPATMMPDGTLGLTPPTTERFGQAATMEGIGAIGGTPPAFNRAAPGAEFAPNKRRRY
